Experimental data: the supplement of paper PMC12819154, “High-throughput peptide-centric local stability assay extends protein–ligand identification to membrane proteins, tissues and bacteria” (Nature Structural & Molecular Biology, 2025)
The list shows a part of the results. Most values lie at the level of the controls, where differences are scatter.

The chains behind the UniProt entries cited, without tags or fusion partners. Where a name states a change or a piece, a line headed by the entry shows the natural chain unless it says otherwise.
UniProt Q64092, whole entry: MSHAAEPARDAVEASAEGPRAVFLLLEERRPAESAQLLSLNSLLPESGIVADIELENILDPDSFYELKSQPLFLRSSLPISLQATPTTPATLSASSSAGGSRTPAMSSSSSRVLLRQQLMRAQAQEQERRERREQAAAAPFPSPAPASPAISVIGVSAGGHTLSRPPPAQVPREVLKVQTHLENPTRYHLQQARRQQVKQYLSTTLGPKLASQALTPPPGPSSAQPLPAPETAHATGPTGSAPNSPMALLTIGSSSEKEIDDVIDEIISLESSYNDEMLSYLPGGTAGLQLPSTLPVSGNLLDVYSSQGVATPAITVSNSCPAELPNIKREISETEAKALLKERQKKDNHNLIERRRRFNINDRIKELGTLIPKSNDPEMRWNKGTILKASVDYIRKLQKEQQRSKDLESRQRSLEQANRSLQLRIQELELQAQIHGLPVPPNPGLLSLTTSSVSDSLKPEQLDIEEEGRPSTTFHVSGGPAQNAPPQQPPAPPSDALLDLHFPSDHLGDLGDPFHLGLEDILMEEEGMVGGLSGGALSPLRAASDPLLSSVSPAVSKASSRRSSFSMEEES
UniProt Q62261, whole entry: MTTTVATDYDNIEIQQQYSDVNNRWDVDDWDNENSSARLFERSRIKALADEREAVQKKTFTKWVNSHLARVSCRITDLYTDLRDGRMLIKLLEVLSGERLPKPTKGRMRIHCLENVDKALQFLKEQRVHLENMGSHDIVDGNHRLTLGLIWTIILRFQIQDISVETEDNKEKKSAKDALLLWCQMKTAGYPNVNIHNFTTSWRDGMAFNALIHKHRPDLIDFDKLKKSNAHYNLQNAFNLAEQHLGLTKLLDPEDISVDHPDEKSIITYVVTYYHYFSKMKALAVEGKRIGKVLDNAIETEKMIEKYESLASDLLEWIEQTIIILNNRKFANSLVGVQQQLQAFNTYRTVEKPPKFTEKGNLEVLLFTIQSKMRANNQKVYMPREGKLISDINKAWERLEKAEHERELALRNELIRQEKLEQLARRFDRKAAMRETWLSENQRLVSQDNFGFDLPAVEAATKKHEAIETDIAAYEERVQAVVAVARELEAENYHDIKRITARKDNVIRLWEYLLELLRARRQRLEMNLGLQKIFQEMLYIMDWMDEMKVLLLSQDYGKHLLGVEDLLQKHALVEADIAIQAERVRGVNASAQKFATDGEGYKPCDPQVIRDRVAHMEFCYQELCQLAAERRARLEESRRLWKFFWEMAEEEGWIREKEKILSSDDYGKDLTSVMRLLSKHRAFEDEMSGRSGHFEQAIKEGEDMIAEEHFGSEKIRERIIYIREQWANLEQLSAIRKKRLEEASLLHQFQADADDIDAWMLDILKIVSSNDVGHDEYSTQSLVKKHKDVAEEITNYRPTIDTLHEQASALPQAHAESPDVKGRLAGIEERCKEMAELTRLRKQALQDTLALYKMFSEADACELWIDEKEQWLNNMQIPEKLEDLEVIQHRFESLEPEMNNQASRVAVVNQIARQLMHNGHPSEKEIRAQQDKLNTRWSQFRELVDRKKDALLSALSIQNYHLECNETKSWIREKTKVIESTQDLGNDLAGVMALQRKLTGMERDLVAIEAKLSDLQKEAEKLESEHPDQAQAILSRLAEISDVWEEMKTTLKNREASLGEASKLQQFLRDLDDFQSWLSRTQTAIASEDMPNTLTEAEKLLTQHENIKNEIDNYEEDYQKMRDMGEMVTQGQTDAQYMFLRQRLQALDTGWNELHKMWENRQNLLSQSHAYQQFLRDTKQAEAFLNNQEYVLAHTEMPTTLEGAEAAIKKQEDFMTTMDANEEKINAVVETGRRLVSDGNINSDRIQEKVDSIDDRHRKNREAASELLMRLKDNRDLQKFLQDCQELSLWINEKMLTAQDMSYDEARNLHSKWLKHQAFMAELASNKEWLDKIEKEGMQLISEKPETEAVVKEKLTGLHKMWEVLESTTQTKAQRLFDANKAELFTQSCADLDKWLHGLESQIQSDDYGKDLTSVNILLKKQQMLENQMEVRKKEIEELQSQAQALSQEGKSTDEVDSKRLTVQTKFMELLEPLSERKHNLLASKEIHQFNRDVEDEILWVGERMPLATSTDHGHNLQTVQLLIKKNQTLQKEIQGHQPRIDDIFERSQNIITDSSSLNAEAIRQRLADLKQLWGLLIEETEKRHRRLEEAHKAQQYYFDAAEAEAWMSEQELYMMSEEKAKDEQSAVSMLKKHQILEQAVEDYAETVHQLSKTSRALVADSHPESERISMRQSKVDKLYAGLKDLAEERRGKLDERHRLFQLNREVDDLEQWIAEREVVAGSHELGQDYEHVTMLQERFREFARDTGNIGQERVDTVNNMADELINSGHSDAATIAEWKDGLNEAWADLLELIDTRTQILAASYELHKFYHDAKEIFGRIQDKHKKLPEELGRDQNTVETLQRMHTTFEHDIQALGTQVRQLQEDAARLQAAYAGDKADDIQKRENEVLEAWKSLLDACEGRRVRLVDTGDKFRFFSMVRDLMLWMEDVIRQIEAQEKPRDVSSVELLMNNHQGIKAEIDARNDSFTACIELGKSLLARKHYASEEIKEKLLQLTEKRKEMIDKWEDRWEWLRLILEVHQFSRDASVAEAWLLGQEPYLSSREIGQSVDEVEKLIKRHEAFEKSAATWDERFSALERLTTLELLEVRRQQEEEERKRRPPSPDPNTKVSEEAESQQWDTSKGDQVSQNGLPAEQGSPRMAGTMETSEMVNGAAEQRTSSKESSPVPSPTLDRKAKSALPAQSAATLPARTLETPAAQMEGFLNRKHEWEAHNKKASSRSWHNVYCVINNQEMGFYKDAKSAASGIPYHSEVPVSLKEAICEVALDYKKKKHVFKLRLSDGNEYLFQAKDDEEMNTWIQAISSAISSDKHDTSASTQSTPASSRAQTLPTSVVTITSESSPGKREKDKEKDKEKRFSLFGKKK
UniProt Q62433: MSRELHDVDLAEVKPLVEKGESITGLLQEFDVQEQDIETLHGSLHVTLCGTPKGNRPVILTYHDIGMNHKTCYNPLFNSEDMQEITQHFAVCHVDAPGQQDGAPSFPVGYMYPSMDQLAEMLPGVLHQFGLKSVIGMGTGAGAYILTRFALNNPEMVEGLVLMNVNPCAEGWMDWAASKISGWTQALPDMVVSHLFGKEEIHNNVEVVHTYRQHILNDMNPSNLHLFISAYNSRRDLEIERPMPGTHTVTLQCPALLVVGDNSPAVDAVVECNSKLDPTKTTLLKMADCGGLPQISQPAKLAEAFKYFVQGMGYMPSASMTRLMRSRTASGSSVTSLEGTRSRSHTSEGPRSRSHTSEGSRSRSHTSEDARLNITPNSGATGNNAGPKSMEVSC
UniProt Q68FF9: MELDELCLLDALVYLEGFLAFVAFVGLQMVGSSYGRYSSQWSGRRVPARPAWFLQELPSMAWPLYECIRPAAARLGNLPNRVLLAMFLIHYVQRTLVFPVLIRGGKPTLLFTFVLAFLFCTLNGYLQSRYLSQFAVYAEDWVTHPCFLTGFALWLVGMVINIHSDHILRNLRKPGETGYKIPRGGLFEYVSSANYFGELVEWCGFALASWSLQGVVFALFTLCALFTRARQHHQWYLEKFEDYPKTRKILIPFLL
UniProt Q68ED7: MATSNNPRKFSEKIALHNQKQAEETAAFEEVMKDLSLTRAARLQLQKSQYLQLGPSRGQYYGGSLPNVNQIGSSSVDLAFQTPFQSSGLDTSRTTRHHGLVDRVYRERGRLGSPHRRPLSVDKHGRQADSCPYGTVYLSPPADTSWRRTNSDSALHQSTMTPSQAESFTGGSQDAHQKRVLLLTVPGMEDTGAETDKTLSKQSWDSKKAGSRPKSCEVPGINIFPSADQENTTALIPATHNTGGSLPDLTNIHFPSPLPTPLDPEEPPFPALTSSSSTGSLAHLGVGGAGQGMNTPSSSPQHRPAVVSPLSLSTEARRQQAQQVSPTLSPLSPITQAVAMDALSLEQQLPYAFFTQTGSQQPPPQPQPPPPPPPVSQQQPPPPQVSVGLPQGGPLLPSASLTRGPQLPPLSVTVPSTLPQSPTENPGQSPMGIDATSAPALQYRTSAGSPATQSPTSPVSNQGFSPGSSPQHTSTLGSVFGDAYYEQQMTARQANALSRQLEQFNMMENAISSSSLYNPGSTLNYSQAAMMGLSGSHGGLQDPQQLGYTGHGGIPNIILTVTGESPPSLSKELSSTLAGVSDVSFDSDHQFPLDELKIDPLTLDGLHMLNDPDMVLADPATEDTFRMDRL
UniProt Q64511: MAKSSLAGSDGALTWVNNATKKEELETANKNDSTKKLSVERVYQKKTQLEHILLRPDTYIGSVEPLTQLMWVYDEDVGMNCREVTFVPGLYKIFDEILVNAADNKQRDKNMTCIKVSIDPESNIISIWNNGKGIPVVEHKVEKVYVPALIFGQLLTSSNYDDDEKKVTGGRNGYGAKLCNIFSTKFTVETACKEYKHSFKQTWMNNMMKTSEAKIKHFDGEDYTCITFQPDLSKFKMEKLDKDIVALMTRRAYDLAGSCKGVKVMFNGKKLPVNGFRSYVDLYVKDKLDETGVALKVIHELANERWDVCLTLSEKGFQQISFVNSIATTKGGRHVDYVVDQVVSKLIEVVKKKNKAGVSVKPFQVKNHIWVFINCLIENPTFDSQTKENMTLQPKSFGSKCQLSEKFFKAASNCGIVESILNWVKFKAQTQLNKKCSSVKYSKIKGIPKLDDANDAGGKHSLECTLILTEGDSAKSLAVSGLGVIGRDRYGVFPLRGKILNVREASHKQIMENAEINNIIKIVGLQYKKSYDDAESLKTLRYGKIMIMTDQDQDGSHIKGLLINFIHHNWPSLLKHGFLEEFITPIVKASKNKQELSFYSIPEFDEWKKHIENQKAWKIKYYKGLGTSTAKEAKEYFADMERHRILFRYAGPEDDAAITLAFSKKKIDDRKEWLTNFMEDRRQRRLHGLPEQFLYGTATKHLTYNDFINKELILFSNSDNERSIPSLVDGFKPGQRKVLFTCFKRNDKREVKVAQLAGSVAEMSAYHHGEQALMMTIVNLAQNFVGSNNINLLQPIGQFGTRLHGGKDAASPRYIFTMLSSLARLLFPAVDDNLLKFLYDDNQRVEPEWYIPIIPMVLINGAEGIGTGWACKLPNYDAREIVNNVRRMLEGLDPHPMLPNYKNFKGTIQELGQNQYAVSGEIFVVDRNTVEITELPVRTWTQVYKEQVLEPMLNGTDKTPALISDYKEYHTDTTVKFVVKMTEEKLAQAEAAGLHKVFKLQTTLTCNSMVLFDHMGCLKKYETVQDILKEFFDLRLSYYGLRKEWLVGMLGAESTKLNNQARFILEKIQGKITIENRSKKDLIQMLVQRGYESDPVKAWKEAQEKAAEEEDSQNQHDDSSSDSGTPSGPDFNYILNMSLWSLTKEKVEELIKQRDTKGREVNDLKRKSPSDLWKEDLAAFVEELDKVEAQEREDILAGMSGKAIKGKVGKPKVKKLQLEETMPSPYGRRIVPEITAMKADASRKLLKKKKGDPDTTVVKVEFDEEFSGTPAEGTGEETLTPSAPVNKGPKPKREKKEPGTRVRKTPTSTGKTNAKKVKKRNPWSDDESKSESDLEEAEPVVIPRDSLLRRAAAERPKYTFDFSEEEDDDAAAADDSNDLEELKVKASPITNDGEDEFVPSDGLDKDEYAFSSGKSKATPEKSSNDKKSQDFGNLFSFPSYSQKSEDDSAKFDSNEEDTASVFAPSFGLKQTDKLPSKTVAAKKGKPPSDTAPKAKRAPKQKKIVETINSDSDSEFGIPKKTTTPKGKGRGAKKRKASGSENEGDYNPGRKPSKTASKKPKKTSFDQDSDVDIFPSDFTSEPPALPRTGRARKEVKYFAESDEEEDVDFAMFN
UniProt Q61466, whole entry: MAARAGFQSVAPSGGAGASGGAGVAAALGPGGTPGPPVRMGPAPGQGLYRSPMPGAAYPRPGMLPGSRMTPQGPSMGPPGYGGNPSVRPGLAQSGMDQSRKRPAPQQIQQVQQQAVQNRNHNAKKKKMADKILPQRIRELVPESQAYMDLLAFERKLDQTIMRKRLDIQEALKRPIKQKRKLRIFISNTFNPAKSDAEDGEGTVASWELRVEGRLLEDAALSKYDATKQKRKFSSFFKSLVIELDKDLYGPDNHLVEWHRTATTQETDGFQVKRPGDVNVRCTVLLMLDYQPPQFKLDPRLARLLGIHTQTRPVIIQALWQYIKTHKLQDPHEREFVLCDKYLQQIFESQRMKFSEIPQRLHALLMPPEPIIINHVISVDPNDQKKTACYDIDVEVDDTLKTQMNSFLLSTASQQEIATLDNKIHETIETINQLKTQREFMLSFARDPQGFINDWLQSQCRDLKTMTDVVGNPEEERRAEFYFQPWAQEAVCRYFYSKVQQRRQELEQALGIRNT

Compound: CN[C@@H]1C[C@H]2O[C@@](C)([C@@H]1OC)n1c3ccccc3c3c4c(c5c6ccccc6n2c5c31)C(=O)NC4 [staurosporine]
Experiment: log2 fold change of tryptic peptide abundance, ligand vs vehicle (limited proteolysis) (log2 ratio); higher = more trypsin-susceptible (destabilized)
Details: ligand concentration: 20 uM; sample: mouse liver crude lysate; replicate design: treated separately

Target | log2 fold change
UniProt Q62136 (peptide sequence: RDGLLTPSMSESDLTTSGR, peptide start residue: 790) | 0.481
UniProt Q64092 (peptide sequence: YHLQQAR, peptide start residue: 188) | -0.164
UniProt Q689Z5 (peptide sequence: KDLLDKLEK, peptide start residue: 853) | 0.539
UniProt Q64446 (peptide sequence: AIATQVGINK, peptide start residue: 1226) | 0.254
UniProt Q62261 (peptide sequence: LLEVLSGERLPKPTK, peptide start residue: 91) | 0.366
UniProt Q62095 (peptide sequence: SGRKPILVATAVAAR, peptide start residue: 488) | -0.0896
UniProt Q62433 (peptide sequence: EEIHNNVEVVHTYR, peptide start residue: 199) | -0.177
UniProt Q68FF9 (peptide sequence: QHHQWYLEKFEDYPK, peptide start residue: 231) | 0.545
UniProt Q62077 (peptide sequence: SLMYSAQK, peptide start residue: 219) | 0.488
UniProt Q68ED7 (peptide sequence: SQYLQLGPSR, peptide start residue: 48) | 0.092
UniProt Q69ZP3 (peptide sequence: VNLVAILCTHK, peptide start residue: 163) | 0.541
UniProt Q68FL4 (peptide sequence: ESILDGLK, peptide start residue: 295) | 0.686
UniProt Q61584 (peptide sequence: LPPPPDIKK, peptide start residue: 49) | 0.22
UniProt Q69Z99 (peptide sequence: VLQDLVPDDR, peptide start residue: 369) | -0.142
UniProt Q64435 (peptide sequence: EIVEHLSER, peptide start residue: 44) | -0.816
UniProt Q68FE8 (peptide sequence: SVNSDASDPGSVR, peptide start residue: 901) | 0.366

Some of the entries so far, with each value named:
UniProt Q69Z99 (peptide sequence: VLQDLVPDDR, peptide start residue: 369)
  log2 fold change: -0.142
UniProt Q64435 (peptide sequence: EIVEHLSER, peptide start residue: 44)
  log2 fold change: -0.816

The list goes on.

Target | log2 fold change
UniProt Q64705 (peptide sequence: QQIEELKNENALLR, peptide start residue: 316) | 0.24
UniProt Q64511 (peptide sequence: HLTYNDFINK, peptide start residue: 701) | 0.246
UniProt Q66JV4 (peptide sequence: YPTDEDFR, peptide start residue: 673) | -0.493
UniProt Q61644 (peptide sequence: KAQKPWAK, peptide start residue: 140) | -0.335
UniProt Q62009 (peptide sequence: LILQNHILK, peptide start residue: 429) | -0.168
UniProt Q61581 (peptide sequence: GHCAPGMECVK, peptide start residue: 78) | -0.941
UniProt Q61466 (peptide sequence: KRPAPQQIQQVQQQAVQNR, peptide start residue: 101) | 0.564
UniProt Q61624 (peptide sequence: ESVLDKSDLKK, peptide start residue: 330) | -0.594
UniProt Q62167 (peptide sequence: GDYDGIGGRGDR, peptide start residue: 102) | -0.22
UniProt Q61646 (peptide sequence: QWVNTVAGEKLPECEAVCGKPK, peptide start residue: 73) | -0.204
UniProt Q62187 (peptide sequence: FSQIGGTR, peptide start residue: 630) | -0.388
UniProt Q61704 (peptide sequence: FAHNVVTTR, peptide start residue: 58) | -0.19
UniProt Q61425 (peptide sequence: KTGEGFYK, peptide start residue: 305) | 0.137
UniProt Q64458 (peptide sequence: GTTVITSLSSVLHDSK, peptide start residue: 384) | -0.209
UniProt Q61830 (peptide sequence: FIWMDGSK, peptide start residue: 872) | 0.108
